# Measurements from PubChem BioAssay AID445 (National Center for Advancing Translational Sciences (NCATS), 2006).
# This is one part of the list. The main result of the screen is listed elsewhere. These columns were measured beside it and carry no call. Compounds called inactive in the main read-out are mostly missing here. Words in brackets tell the shape of the fitted curve; partial curves, single points and poor fits give uncertain potencies.
# Experiment: IkB Signaling
# Settings: ABC-DLBCL IkBa-CBG/CBR dual luciferase ratio (green luciferase fused to IkBa over red control in OCI-Ly3 lymphoma cells), 4 h
# Method in brief: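 Curves were fitted separately to fusion (green), unfused (red) and ratio luminescence, then classed by r2, magnitude and activity. Cells: OCI-Ly3, 4 h compound plus doxycycline at 37C; 10 uM MG-132 defined full response.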
# [1] = measured here: control luc red channel unless noted
# [2] = measured here: IkB-luc green channel
# [3] = measured here: control luc red channel
smiles,measurement,setting,value
COc1ccccc1C(=O)NCCn1cc(SCC(=O)NCc2ccco2)c2ccccc21,AC50,[1],"12.6 µM [falling, partial curve]"
CC1CN(c2oc(COc3ccc(Cl)cc3Cl)nc2C#N)CC(C)O1 (configuration not stated),AC50,[1],"31.6 µM [falling, single point]"
CCC(C)NC(=O)Cn1ncc2c(C)n(Cc3ccc(F)cc3)c(C)c2c1=O (configuration not stated),AC50,[1],"3.98 µM [falling, partial curve]"
COC(=O)c1ccc(Cn2c(=O)cc(C)c3c(C)nn(C)c32)cc1,AC50,[1],"15.8 µM [falling, single point]"
Cc1oc(C)c2c(=O)ccc3c(c12)OC(N)=C(C#N)C3c1ccccc1 (configuration not stated),AC50,[1],"31.6 µM [falling, single point]"
CCn1cc(C(=O)N2CCN(c3ccccc3)CC2)c(=O)c2cc(S(=O)(=O)N(C)C3CCCCC3)ccc21,AC50,[1],"20 µM [falling, partial curve]"
CC(=O)CSc1nc(-c2ccccc2)[nH]c1S(=O)(=O)c1ccc(C)cc1,AC50,[1],"25.1 µM [falling, single point]"
CCOc1ccc(Sc2cc(C(=O)NCc3ccc(F)cc3)c3ccccc3n2)cc1,AC50,[1],"2.51 µM [falling, partial curve]"
O=C(CN1C(=O)CCSc2ccc(S(=O)(=O)N3CCCC3)cc21)Nc1cccc(Cl)c1,AC50,[1],"15.8 µM [falling, partial curve]"
Cc1cc(C)n2nc(CNC(=O)c3cccc(Cl)c3)nc2n1,AC50,[1],"0.794 µM [rising, partial curve, poor fit]"
CSc1ccc(CCNC(=O)C(C)n2nc(C)c3c(C)n(-c4ccccc4)nc3c2=O)cc1 (configuration not stated),AC50,[1],"0.01 µM [falling, full curve, poor fit]"
CCCc1ccc(Oc2c(-c3ccc(O)c(C)c3O)n[nH]c2C)cc1,AC50,[2],"39.8 µM [falling, single point]"
same,AC50,[3],"31.6 µM [falling, single point]"
Cc1ccc(CCNC(=O)Cn2nc(C)c3c(C)n(-c4ccc(C)cc4)nc3c2=O)cc1,AC50,[1],"25.1 µM [falling, partial curve]"
Cc1cccc(CNC(=O)c2ccc(-c3nc(CS(=O)(=O)c4ccccc4)c(C)o3)cc2)c1,AC50,[1],"3.16 µM [falling, full curve, poor fit]"
Cc1ccc(NC(=O)COc2ccc3oc4c(c3c2)CCCC4)c(C)c1,AC50,[1],"39.8 µM [falling, single point]"
Cc1noc2ncnc(Nc3ccc(F)cc3)c12,AC50,[1],"0.00631 µM [rising, full curve, poor fit]"
COc1cccc2cc(-c3nnc(Nc4ccccc4C)s3)c(=O)oc12,AC50,[1],"1.26 µM [falling, partial curve]"
COc1ccccc1N1CCN(C(=O)CCn2cnc3onc(-c4ccc(F)cc4)c3c2=O)CC1,AC50,[1],"15.8 µM [falling, partial curve]"
N#Cc1cccc(-c2nc3cnc(Nc4ccccc4)nc3n(C[C@H]3CCCO3)c2=O)c1,AC50,[1],"3.16 µM [falling, partial curve] [measured here: IkB-luc green channel]"
Cc1ccc(CCNC(=O)NCc2noc3ccc(C)cc23)cc1,AC50,[1],"39.8 µM [falling, single point]"
COC(=O)c1ccc(O)c(Sc2cc(C(=O)OC)ccc2O)c1,AC50,[1],"10 µM [falling, partial curve]"
Cc1cccc(NC(=O)Cn2cc(S(=O)(=O)c3ccc(F)cc3)c(=O)c3cc4c(cc32)OCO4)c1,AC50,[1],"39.8 µM [falling, single point]"
CC(=O)c1cccc(NC(=O)c2cnn(-c3cccc(C)c3)c2-n2cccc2)c1,AC50,[1],"0.316 µM [falling, partial curve]"
CCC(=O)N1CCc2cc(Br)cc(S(=O)(=O)NCCc3ccccc3Cl)c21,AC50,[1],"25.1 µM [falling, partial curve]"
Cc1ccc(C)c(NC(=O)N2CC=C(c3c[nH]c4ccccc34)CC2)c1,AC50,[1],"12.6 µM [falling, partial curve]"
Cn1c(CSCc2ccc(Cl)c(Cl)c2)nnc1SCC(=O)Nc1nccs1,AC50,[1],"3.16 µM [falling, full curve]"
CC#C[C@@]1(O)CC[C@@H]2[C@@H]3CCC4=CC(=O)CCC4=C3[C@@H](c3ccc(N(C)C)cc3)C[C@]21C,AC50,[1],"7.94 nM [rising, full curve] [measured here: IkB-luc green channel]"
Cc1cccc(OCc2nnc(SCC(=O)OC3CCCCC3)o2)c1,AC50,[1],"25.1 µM [falling, single point]"
COc1ccc(Nc2ccc3cc(S(=O)(=O)N4CCCC4)ccc3n2)cc1Cl,AC50,[1],"7.94 µM [rising, partial curve]"
COc1ccccc1OCC(=O)N(Cc1ccc(N(C)C)cc1)CC1CCCO1 (configuration not stated),AC50,[1],"25.1 µM [falling, single point]"
CCCCN(Cc1ccccc1)C(=O)CN(C)S(=O)(=O)c1ccc2c(c1)c(=O)n(C)c(=O)n2C,AC50,[1],"39.8 µM [falling, single point]"
Cc1cccc(OCc2ccc(-c3nc(C#N)c(N4CCC(C(N)=O)CC4)o3)o2)c1,AC50,[1],"25.1 µM [falling, single point]"
CCc1cc2c(cc3c(=O)n(CCCC(=O)NCc4ccccc4Cl)nc(CC)n32)s1,AC50,[1],"25.1 µM [falling, partial curve]"
CCOC(=O)c1cccc(NC(=O)CC2C(=O)N(c3ccc(F)cc3)C(=O)N2C(C)C)c1 (configuration not stated),AC50,[1],"31.6 µM [falling, single point]"
Cc1ccc(-c2nc3ncccc3o2)cc1NC(=O)COc1ccc(C(C)C)cc1,AC50,[1],"31.6 µM [falling, single point]"
COc1ccc(NC(=O)C(Cc2ccccc2)NS(=O)(=O)c2ccc(Br)s2)cc1OC (configuration not stated),AC50,[1],"15.8 µM [falling, partial curve]"
CS(=O)(=O)c1ccc(Cn2c3c(c4cc(F)cc(F)c42)CCC[C@H]3CC(=O)O)cc1,AC50,[1],"3.98 µM [falling, partial curve, poor fit]"
Cc1ccc(C)c(N2CCN(C(=O)CCS(=O)(=O)c3cccc4nonc34)CC2)c1,AC50,[1],"10 µM [falling, partial curve]"
COc1ccc(OC)c(CCNC(=O)c2cc3c(-c4ccccc4F)nn(C)c3s2)c1,AC50,[1],"12.6 µM [falling, partial curve]"
COc1ccc(C)cc1NS(=O)(=O)c1ccc2c(c1)[C@H]1C=CC[C@H]1[C@@H](c1cccc(Cl)c1)N2,AC50,[1],"7.94 µM [falling, partial curve]"
O=S(=O)(Nc1cccc2ncccc12)c1cccs1,AC50,[2],"0.794 µM [rising, full curve]"
same,AC50,[3],"0.794 µM [rising, full curve]"
COc1ccccc1CCNC(=O)CCn1c(=O)c2cccn2c2ccc(F)cc21,AC50,[1],"10 µM [falling, partial curve]"
CCOc1cc(C(=O)Nc2ccc3oc(-c4ccc(CC)cc4)nc3c2)cc(OCC)c1OCC,AC50,[1],"10 µM [falling, partial curve]"
O=C(CCc1nc(-c2ccccc2F)no1)Nc1cccc(C(F)(F)F)c1,AC50,[1],"31.6 µM [falling, single point]"
Cc1ccc(C)c(N2CCN(C(=O)c3cccc(-n4c(C)nc5cccnc54)c3)CC2)c1,AC50,[1],"12.6 µM [falling, partial curve]"
Cc1ccc(CC(=O)N(Cc2nc(-c3ccc(C)cc3)no2)C(C)C)cc1,AC50,[1],"12.6 µM [falling, partial curve]"
O=C(CN1C(=O)c2cccc3cccc1c23)N1CCN(Cc2ccc3c(c2)OCO3)CC1,AC50,[1],"31.6 µM [falling, partial curve]"
O=C(Nc1ccn(-c2ccccc2)n1)c1ccc(S(=O)(=O)N2CCCCCC2)cc1,AC50,[1],"3.16 µM [falling, full curve, poor fit]"
CCOc1ccc(OCC)c(NC(=O)c2cc(C)nc3c2c(C)nn3-c2cccc(Cl)c2C)c1,AC50,[1],"0.00794 µM [falling, full curve, poor fit]"
CC1CCc2nc(NC(=O)CSc3nc4ccccc4o3)sc2C1 (configuration not stated),AC50,[1],"1.58 µM [falling, full curve, poor fit]"
COCCCNc1ncnc2c1c(-c1ccccc1)cn2-c1ccc(C)c(Cl)c1,AC50,[1],"25.1 µM [falling, single point]"
CCn1c(CN2CCN(c3cccc(Cl)c3)CC2)nc2c1c(=O)[nH]c(=O)n2C,AC50,[1],"39.8 µM [falling, single point]"
O=C(COc1ccc(Cl)cc1)Nc1cc(-c2ccccc2)no1,AC50,[1],"3.16 µM [rising, single point]"
C[C@@H]1C[C@H]2[C@@H]3CCC4=CC(=O)C=C[C@]4(C)[C@@]3(F)[C@@H](O)C[C@]2(C)[C@@]1(O)C(=O)CO,AC50,[2],"0.00316 µM [rising, full curve, poor fit]"
same,AC50,[3],"0.0158 µM [rising, full curve, poor fit]"
COc1ccc(OC)c(NC(=O)CN2C(=O)CC(c3ccco3)Sc3ccccc32)c1 (configuration not stated),AC50,[1],"20 µM [falling, single point]"
Cc1ccc(N2CC(c3nnc(Cc4ccc(Cl)cc4)o3)CC2=O)cc1 (configuration not stated),AC50,[1],"20 µM [falling, single point]"
CNS(=O)(=O)c1cn(CC(=O)Nc2ccc(F)cc2F)cc1S(=O)(=O)NC,AC50,[1],"39.8 µM [rising, partial curve]"
COC(=O)c1ccccc1NC(=O)CN1CCC(n2nnc3cc(F)ccc32)CC1,AC50,[1],"2 µM [falling, full curve]"
Cc1cccc(C(=O)Nc2ccc(-c3nc4ccccc4s3)c(C)c2)c1,AC50,[1],"3.98 µM [rising, partial curve, poor fit]"

# A second format for part of the listing above:
smiles	measurement	setting	value
Cc1cccc(OCc2nnc(SCC(=O)OC3CCCCC3)o2)c1	AC50	[1]	25.1 µM [falling, single point]
COc1ccc(Nc2ccc3cc(S(=O)(=O)N4CCCC4)ccc3n2)cc1Cl	AC50	[1]	7.94 µM [rising, partial curve]
